The supplement of paper PMC11006884
Only a part is listed here, and it is no random draw. Single values of this set are uncertain.

Amino acid sequences for entries named in this document (tags omitted). A change or cut given only in a name is not applied to a line headed by its entry.
UniProt Q9ULL5: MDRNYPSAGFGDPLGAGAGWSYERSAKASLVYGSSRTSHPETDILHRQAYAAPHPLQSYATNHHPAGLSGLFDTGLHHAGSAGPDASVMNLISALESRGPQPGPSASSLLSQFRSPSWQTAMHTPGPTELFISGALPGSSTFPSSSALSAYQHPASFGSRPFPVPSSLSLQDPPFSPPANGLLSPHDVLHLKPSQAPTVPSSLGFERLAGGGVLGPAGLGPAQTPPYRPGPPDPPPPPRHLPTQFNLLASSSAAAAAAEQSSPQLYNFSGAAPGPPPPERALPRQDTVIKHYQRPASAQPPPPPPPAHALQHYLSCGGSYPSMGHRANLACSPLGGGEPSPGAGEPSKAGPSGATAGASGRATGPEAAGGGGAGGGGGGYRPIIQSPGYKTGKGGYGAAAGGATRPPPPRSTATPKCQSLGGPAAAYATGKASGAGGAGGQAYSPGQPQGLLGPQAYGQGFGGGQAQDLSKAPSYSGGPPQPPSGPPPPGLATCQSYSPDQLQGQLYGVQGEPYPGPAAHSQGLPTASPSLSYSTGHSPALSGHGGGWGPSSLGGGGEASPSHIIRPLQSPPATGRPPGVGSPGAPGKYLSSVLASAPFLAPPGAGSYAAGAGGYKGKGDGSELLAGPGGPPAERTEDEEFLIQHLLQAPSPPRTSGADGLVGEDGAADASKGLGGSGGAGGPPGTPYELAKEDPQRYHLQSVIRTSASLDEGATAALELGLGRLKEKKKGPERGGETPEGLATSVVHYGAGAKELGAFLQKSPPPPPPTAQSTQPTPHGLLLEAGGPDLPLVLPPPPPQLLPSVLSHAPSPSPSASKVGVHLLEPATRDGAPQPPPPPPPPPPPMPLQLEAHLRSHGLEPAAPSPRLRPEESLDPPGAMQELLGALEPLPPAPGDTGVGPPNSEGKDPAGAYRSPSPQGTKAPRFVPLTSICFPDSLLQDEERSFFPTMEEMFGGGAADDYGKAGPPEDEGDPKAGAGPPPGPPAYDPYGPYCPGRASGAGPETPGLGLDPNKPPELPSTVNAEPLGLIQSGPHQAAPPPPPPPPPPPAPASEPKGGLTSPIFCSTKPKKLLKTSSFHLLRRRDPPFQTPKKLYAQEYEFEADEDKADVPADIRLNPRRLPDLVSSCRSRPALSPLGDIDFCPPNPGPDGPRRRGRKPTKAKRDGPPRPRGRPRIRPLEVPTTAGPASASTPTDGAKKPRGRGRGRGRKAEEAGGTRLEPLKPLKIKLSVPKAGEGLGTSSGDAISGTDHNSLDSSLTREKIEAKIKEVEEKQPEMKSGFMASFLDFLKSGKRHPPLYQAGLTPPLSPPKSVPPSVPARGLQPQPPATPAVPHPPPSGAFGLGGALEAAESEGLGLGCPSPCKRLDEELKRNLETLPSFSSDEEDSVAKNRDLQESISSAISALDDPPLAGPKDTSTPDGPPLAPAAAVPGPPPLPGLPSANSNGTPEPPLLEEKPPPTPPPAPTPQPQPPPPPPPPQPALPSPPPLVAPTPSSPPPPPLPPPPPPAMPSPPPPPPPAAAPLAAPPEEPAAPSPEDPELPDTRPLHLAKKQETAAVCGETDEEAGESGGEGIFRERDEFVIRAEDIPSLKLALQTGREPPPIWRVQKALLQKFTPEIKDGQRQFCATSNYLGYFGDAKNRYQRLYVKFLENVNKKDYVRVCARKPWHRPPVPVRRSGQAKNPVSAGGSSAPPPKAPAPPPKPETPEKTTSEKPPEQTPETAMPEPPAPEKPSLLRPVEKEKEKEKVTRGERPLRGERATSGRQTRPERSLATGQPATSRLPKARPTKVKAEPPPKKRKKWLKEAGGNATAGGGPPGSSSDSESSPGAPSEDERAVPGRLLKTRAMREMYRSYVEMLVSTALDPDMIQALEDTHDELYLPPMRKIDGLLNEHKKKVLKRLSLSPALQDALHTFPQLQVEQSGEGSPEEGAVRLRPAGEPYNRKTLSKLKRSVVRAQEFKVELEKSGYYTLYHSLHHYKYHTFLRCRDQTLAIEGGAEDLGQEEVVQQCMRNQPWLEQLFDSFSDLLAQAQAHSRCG
UniProt Q9UL03, whole entry, looked up: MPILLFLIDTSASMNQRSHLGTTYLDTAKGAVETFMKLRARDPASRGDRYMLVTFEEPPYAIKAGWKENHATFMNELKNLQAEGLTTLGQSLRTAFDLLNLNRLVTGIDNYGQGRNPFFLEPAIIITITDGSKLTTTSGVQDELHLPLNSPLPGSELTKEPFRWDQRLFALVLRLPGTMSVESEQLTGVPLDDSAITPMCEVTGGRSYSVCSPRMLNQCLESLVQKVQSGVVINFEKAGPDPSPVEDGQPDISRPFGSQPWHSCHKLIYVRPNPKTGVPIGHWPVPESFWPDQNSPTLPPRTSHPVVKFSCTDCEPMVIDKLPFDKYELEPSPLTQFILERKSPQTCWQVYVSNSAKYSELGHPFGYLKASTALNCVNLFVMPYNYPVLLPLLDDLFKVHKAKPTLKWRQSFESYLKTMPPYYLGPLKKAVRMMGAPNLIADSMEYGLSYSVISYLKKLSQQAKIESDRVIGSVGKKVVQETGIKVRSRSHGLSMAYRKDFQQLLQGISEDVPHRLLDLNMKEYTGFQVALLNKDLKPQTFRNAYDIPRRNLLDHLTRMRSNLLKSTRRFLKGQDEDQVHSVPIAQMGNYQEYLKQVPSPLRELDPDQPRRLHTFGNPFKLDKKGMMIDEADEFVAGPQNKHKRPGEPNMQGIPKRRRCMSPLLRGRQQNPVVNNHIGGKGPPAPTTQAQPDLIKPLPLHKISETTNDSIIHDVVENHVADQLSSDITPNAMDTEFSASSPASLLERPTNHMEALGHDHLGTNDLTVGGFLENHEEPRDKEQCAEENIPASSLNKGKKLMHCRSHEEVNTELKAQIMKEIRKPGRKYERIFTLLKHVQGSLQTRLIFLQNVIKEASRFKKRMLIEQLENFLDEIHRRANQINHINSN
UniProt Q9ULE6: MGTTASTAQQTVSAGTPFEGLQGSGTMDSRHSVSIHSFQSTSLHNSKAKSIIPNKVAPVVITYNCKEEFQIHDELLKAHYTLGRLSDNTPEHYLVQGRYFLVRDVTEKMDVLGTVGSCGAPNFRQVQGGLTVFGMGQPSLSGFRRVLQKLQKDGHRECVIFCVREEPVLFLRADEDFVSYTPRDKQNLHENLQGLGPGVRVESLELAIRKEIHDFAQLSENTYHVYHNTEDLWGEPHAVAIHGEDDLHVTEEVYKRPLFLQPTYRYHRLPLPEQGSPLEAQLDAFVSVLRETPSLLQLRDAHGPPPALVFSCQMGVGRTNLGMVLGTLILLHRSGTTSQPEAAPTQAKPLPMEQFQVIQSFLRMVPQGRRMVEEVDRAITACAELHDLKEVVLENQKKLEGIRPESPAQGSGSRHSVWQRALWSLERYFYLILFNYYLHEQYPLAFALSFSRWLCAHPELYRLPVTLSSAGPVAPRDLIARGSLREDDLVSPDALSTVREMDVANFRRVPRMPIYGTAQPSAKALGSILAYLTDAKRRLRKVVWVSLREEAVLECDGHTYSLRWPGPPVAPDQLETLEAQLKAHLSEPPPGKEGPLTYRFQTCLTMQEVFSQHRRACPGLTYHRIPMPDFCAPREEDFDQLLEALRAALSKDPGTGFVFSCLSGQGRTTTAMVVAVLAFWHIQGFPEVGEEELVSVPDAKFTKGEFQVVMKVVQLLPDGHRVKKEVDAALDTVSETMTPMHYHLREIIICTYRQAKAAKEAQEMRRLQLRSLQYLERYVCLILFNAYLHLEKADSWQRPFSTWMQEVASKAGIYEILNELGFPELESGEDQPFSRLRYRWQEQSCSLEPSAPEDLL
UniProt Q9UID3: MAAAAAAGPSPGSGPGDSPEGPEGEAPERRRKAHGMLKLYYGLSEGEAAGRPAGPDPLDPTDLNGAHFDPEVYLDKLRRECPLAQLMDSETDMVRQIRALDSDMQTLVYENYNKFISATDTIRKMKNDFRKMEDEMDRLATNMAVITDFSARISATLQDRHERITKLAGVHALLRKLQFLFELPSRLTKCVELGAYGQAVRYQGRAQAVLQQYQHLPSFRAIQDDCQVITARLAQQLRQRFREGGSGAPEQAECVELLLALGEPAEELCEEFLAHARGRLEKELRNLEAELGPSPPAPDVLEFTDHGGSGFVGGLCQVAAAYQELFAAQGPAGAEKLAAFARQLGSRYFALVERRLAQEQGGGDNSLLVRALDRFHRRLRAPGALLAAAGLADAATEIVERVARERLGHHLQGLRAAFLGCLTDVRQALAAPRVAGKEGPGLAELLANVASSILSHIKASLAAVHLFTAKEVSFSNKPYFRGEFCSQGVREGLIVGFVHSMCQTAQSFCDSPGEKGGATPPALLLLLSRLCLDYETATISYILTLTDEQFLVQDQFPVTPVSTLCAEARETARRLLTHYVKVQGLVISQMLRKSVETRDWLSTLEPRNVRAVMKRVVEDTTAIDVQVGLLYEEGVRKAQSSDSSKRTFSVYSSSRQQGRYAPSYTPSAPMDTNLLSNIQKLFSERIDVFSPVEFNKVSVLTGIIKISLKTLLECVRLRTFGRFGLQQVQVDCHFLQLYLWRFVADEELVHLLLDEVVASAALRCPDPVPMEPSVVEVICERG
UniProt Q9Y3Z3: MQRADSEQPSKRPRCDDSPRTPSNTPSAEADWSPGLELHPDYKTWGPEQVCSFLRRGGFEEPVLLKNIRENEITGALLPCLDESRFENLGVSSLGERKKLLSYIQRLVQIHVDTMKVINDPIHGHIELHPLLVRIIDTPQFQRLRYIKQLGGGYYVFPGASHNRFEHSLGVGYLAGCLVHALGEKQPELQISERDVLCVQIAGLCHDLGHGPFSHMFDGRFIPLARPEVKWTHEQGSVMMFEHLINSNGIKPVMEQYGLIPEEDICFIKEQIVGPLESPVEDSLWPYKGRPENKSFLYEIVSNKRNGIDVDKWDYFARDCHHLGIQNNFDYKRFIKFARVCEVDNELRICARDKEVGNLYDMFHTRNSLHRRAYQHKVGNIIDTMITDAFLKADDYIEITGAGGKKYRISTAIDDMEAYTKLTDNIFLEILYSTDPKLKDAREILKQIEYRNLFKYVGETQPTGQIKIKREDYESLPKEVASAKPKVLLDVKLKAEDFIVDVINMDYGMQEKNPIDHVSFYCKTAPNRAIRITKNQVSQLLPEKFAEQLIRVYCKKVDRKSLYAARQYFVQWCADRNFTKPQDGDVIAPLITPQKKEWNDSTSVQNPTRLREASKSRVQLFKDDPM
UniProt Q9ULW3: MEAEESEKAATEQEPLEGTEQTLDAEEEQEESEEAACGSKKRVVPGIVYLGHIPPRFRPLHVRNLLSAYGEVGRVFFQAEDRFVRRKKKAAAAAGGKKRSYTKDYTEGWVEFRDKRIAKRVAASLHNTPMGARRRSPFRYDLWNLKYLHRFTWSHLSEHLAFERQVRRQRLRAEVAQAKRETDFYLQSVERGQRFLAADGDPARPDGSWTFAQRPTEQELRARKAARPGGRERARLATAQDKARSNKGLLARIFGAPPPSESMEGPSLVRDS
UniProt Q9Y3B2, whole entry, looked up: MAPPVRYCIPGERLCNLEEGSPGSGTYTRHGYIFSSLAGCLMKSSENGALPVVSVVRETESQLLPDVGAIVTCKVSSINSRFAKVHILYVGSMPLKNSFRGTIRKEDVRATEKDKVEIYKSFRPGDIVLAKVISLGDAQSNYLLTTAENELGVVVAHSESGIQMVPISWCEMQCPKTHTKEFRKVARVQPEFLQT
UniProt Q9UNK0: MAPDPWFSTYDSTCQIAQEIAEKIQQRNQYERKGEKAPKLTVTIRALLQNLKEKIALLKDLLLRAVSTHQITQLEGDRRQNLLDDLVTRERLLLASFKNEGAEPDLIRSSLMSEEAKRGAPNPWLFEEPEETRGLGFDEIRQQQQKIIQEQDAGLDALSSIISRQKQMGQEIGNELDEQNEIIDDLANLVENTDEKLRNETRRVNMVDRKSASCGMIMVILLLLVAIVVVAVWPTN
UniProt Q9UMS4: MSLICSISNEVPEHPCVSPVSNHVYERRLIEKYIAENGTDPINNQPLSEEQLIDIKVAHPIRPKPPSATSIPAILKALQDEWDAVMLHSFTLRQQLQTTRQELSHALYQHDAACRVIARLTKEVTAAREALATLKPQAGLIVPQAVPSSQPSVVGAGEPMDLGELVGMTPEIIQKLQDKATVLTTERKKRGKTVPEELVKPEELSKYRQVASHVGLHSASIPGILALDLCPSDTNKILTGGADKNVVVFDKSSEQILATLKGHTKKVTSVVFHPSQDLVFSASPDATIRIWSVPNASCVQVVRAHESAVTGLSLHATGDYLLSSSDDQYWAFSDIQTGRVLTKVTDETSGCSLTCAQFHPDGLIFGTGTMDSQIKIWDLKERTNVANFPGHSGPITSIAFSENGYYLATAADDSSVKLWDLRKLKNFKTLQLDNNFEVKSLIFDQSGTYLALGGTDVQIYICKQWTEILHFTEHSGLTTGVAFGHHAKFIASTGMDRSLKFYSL

Compound: COC(=O)/C=C/c1ccccc1 [methyl cinnamate]
Experiment: log2 ratio of iodoacetamide-alkyne labeling of the cysteine site, DMSO over compound (competition); higher = stronger covalent engagement of the cysteine by the compound, active = 1 or more
Details: 500 µM; treatment time 1 h; system: HEK293T cell lysate
Procedure, shortened: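 HEK293T lysate (2 mg/mL) was treated with DMSO or electrophile (500 µM, 1 h, ambient temperature), then iodoacetamide alkyne (1 h), clicked to sCIP-TMT reagents, pooled, trypsin-digested overnight at 37 °C, streptavidin-enriched and acid-eluted. Peptides were run on Orbitrap Eclipse LC-MS/MS with FAIMS and quantified in FragPipe. The log2 competition ratio per cysteine is mean control-channel over mean compound-channel reporter intensity. Duplicate channels and three replicates were used, and cysteines quantified in only one replicate were excluded.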

log2 ratio of iodoacetamide-alkyne labeling, inactive:
PRR12 C112 (UniProt Q9ULL5) 0.237
MACF1 C7344 (UniProt Q9UPN3) 0.0878
INTS6 C783 (UniProt Q9UL03) 0.554
UniProt Q9ULE6_C845 0.28
DDX20 C577 (UniProt Q9UHI6) 0.149
VPS51 C254 (UniProt Q9UID3) 0.671
SAMHD1 C522 (UniProt Q9Y3Z3) 0.2
ANKRD50 C87 (UniProt Q9ULJ7) 0.319
MTMR6 C569 (UniProt Q9Y217) 0.321
SRRM2 C872 (UniProt Q9UQ35) 0.481
ABT1 C37 (UniProt Q9ULW3) 0.217
EXOSC1 C15 (UniProt Q9Y3B2) 0.21
STX8 C14 (UniProt Q9UNK0) -0.0259
PRPF19 C114 (UniProt Q9UMS4) 0.103
VPS51 C421 (UniProt Q9UID3) -0.269
SRRM2 C2130 (UniProt Q9UQ35) 0.223

A stretch from the list above:
log2 ratio of iodoacetamide-alkyne labeling, inactive:
VPS51 C254 (UniProt Q9UID3) 0.671
SAMHD1 C522 (UniProt Q9Y3Z3) 0.2
ANKRD50 C87 (UniProt Q9ULJ7) 0.319
